Data published in PubChem BioAssay AID540276 (National Center for Advancing Translational Sciences (NCATS), 2011).
About 5,400 (1.8%) of roughly 300,000 compounds were called active. The inconclusive results got no clear call from the source; some entries with a clear call stand among them for comparison. Calls follow the shape of the full dose curve; tested in HEK293 cells. Where the call is inconclusive, the potency comes from a doubtful curve fit.
Potency is read from the fitted curve at half-maximal effect.

Assay: qHTS for inhibitors of binding or entry into cells for Marburg Virus
Details: Marburg virus pseudotyped entry inhibition, cell reporter; series mostly up to 37.8 µM
For CCN(CC)CCOC(=O)c1c(C)oc2ccc(OC)cc12, the Potency was inconclusive: 29.1 µM [inhibitor, single point].
With COc1ccc(N2CSC3=C(C#N)C(c4cc(OC)c(OC)cc4OC)CC(=O)N3C2)c(OC)c1 (stereo not given) the Potency was “inactive”.
In the case of COC(=O)c1ccc(NC(=O)c2ccc(CN3CCOCC3)cc2)cc1, the Potency is reported as inconclusive: 8.2 µM [inhibitor, partial curve].
With Cc1ccc(-c2nc(N=Nc3ccc(O)cc3)n[nH]2)cc1 the Potency was “inactive”.
In the case of O=C(Cc1ccccc1)c1c[nH]c(C(=O)NC2CCCC2)c1, the Potency is reported as inconclusive: 20 µM [inhibitor, partial curve, poor fit].
In the case of CN1CCN(c2ccccc2NC(=O)c2cccs2)CC1, the Potency is reported as inconclusive: 35.5 µM [inhibitor, single point].
With CC(=O)Nc1cccc(OCC(=O)NC(C)c2ccc3ccccc3c2)c1 (stereo not given) the Potency was “inactive”.
For COCCCN1C(=O)c2[nH]nc(-c3ccccc3O)c2C1c1cccc(Cl)c1 (stereo not given), the Potency was inconclusive: 11.6 µM [inhibitor, partial curve, poor fit].
For Fc1ccc(CN2CCCCCCC2)cc1F, the Potency was inconclusive: 1.83 µM [inhibitor, partial curve].
In the case of COC(=O)C1=C(C)Nc2ncnn2C1c1cccnc1 (stereo not given), the Potency is reported as inconclusive: 0.146 µM [inhibitor, full curve, poor fit].
In the case of Cc1c(C(=O)NC2=NCCS2)oc2ccccc12, the Potency is reported as inconclusive: 29.1 µM [inhibitor, single point].
With COc1ccc(-c2cc(C(F)(F)F)n3ncc(C(=O)NCC4CCCO4)c3n2)cc1 (stereo not given) the Potency was “inactive”.
For CN(c1ccccc1)S(=O)(=O)c1cccc(C(=O)OCC(=O)NCc2ccccc2)c1, the Potency was inconclusive: 31.6 µM [activator, single point].
In the case of COc1cccc(NC(=O)C(=S)NC2CCCCC2)c1, the Potency is reported as inconclusive: 3.16 µM [activator, single point].
In the case of Cc1ccccc1C(=O)Nc1nnc(-c2ccncc2)o1, the Potency is reported as “inactive”.
In the case of O=C(Nc1ccc(C(=O)N2CCOCC2)cc1)c1cnn2c(C(F)F)cc(-c3ccccc3)nc12, the Potency is reported as inconclusive: 1.26 µM [inhibitor, partial curve, poor fit].
In the case of CCNc1nc(NCC)n2c(SCC(=O)Nc3ccc(Br)cc3F)nnc2n1, the Potency is reported as “inactive”.
With CCC(C)(C)n1nnnc1C(c1ccc(OC)c(OC)c1)N1CCN(c2cccc(OC)c2)CC1 (stereo not given) the Potency was inconclusive: 0.282 µM [inhibitor, full curve, poor fit].
In the case of CNC(=O)CN1C(=O)NC(Cc2c[nH]c3ccccc23)C1=O (stereo not given), the Potency is reported as inconclusive: 7.08 µM [inhibitor, partial curve, poor fit].
For CC1CC(C)(C)NC(=S)N1CCCC(=O)Nc1ccc(F)cc1 (stereo not given), the Potency was “inactive”.
In the case of CCn1c(=N)n(CC(O)COc2cccc(C)c2)c2ccccc21 (stereo not given), the Potency is reported as inconclusive: 6.51 µM [inhibitor, partial curve, poor fit].
In the case of Cc1cccc(N2CCN(C(=O)CNC(=O)C3CCCCC3)CC2)c1C, the Potency is reported as inconclusive: 5.62 µM [inhibitor, partial curve].
In the case of CNC(=O)C1Cc2ccccc2CN1S(=O)(=O)c1cccs1 (stereo not given), the Potency is reported as inconclusive: 12.6 µM [activator, single point].
With COc1ccc(CCNC(=O)CCCC(=O)n2nc(C)c3ccccc32)cc1OC the Potency was “inactive”.
For COc1cccc(NC(=O)CN(C)C(=O)/C=C/c2cn(-c3ccccc3)nc2-c2ccc(C)cc2)c1, the Potency was inconclusive: 11.2 µM [inhibitor, partial curve, poor fit].
In the case of COc1ccc(C2CC(c3cccs3)=NN2C(=O)c2ccco2)cc1OC (stereo not given), the Potency is reported as inconclusive: 20 µM [inhibitor, partial curve, poor fit].
With CC1CCCC(NC(=S)Nc2cccc(S(=O)(=O)N(C)C)c2)C1C (stereo not given) the Potency was inconclusive: 8.91 µM [inhibitor, partial curve].
For CC(=O)Nc1ccc(/C(N=Nc2ccccc2)=N/N=C(N)N)cc1, the Potency was inconclusive: 3.16 µM [activator, partial curve, poor fit].
In the case of Cc1ccc(S(=O)(=O)Nc2ccc3c(c2)nc(CCN2CCCCC2)n3C)cc1, the Potency is reported as inconclusive: 35.5 µM [inhibitor, single point].
For COc1cc(C2CC(=O)C=C(O)C2)cc(OC)c1OC (stereo not given), the Potency was inconclusive: 0.103 µM [inhibitor, full curve, poor fit].
In the case of CCOc1cc(Br)c(CN2C(=O)NC3(CCCCCC3)C2=O)cc1OCC, the Potency is reported as active: 11.2 µM.
For Cc1cc(C)cc(NC(=O)CSc2nc(-c3ccccc3)c3cc(F)ccc3n2)c1, the Potency was “inactive”.
With CC1CCN(CC(C)CNC(=O)c2cc(-c3ccccn3)nc3ccccc23)CC1 (stereo not given) the Potency was inconclusive: 29.1 µM [inhibitor, single point].
With Cc1ccc2c(c1)-c1ncc(C(=O)c3ccccc3O)cc1CO2 the Potency was “inactive”.
With O=C(C[n+]1cc(Br)cc2ccccc21)c1ccc(Br)cc1 the Potency was inconclusive: 12.6 µM [inhibitor, partial curve, poor fit].
With COc1ccc(-c2nn(-c3ccccc3C)cc2CNC(C)c2cn(C)nc2C)cc1F (stereo not given) the Potency was inconclusive: 11.2 µM [inhibitor, partial curve, poor fit].
In the case of O=C(O)c1ccccc1-c1ccccc1C(=O)NCc1ccco1, the Potency is reported as inconclusive: 29.1 µM [activator, single point].
In the case of O=C(NC1CCCCC1C(=O)O)c1ccco1 (stereo not given), the Potency is reported as inconclusive: 10 µM [activator, partial curve, poor fit].
In the case of CCCCC1CCC(C(=O)N(C)CC(=O)Nc2cccc(F)c2)CC1 (stereo not given), the Potency is reported as inconclusive: 0.316 µM [inhibitor, full curve, poor fit].
In the case of C=CC1=C2C=C(C3CC3)N(CCCOC(C)C)C=C2C(=O)C(C)(OC(=O)c2ccco2)C1=O (stereo not given), the Potency is reported as “inactive”.
With CCSC1=C(C#N)C(=O)n2c1cc1c2CCCC1 the Potency was inconclusive: 14.6 µM [inhibitor, single point].
With CCC(=O)NCc1csc(-c2cccs2)n1 the Potency was inconclusive: 10 µM [activator, partial curve].
In the case of CCOc1cc(/C=N/NC(=O)COc2ccc(Cl)cc2)ccc1OS(=O)(=O)c1ccccc1, the Potency is reported as active: 6.51 µM.
In the case of COc1ccc(-n2c(SCC(=O)c3ccc[nH]3)nnc2-c2ccccc2)cc1, the Potency is reported as inconclusive: 2.51 µM [inhibitor, partial curve, poor fit].
With Cc1ccc(NC(=O)CC2SC(=Nc3ccc(O)cc3)NC2=O)cc1 (stereo not given) the Potency was inconclusive: 15.8 µM [inhibitor, single point].
In the case of c1ccc(-c2cc(-c3nn4c(-c5ccco5)nnc4s3)c3ccccc3n2)cc1, the Potency is reported as inconclusive: 23.1 µM [inhibitor, single point].
For CC(C)(C)OC(=O)N1CCC(c2nnc(SCc3cccc(Cl)c3)o2)CC1, the Potency was “inactive”.
In the case of COc1ccccc1C(=O)C1CCCN(C(=O)c2cn3cc(Cl)ccc3n2)C1 (stereo not given), the Potency is reported as “inactive”.
In the case of C=CCn1c(COc2ccccc2)nnc1SCC(=O)N/N=C/c1ccc(C)cc1, the Potency is reported as inconclusive: 22.4 µM [activator, single point].
In the case of COc1ccc(CNCC(O)(c2ccccc2)c2ccc(F)cc2)cc1OC (stereo not given), the Potency is reported as active: 2.82 µM.
With Cc1ccccc1Nc1c(-c2ccc(N3CCOCC3)cc2)nc2ccccn12 the Potency was inconclusive: 7.08 µM [activator, partial curve].
In the case of Cc1c(C(=O)N2CCN(Cc3ccccc3)CC2)sc2ncnc(N3CCOCC3)c12, the Potency is reported as inconclusive: 2.91 µM [inhibitor, partial curve, poor fit].
For COC(=O)C1=C(C)NC(=O)/C1=C\c1cc(C)n(-c2cc(C)cc(C)c2)c1C, the Potency was inconclusive: 25.1 µM [inhibitor, single point].
In the case of CN(C)c1nc(NN)nc(Nc2ccc(F)cc2)n1, the Potency is reported as inconclusive: 10 µM [inhibitor, partial curve, poor fit].
In the case of COc1ccc(-c2nc(SCC(=O)Nc3ccc4c(c3)OCCO4)c(-c3ccc(C)cc3)[nH]2)cc1OC, the Potency is reported as inconclusive: 6.31 µM [inhibitor, partial curve, poor fit].
With COc1ccc(/C(O)=C2/C(=O)C(=O)N(Cc3cccnc3)C2c2ccco2)cc1OC (stereo not given) the Potency was “inactive”.
In the case of CCCCOCCCNC(=O)/C=C/c1ccccc1Cl, the Potency is reported as inconclusive: 3.55 µM [activator, full curve, poor fit].
With Cc1c(Cl)cnc(NC(=O)CSc2nnc3ccccn23)c1Cl the Potency was “inactive”.
With C/C=C(/C)C(=O)O[C@@H]1[C@H](OC(C)=O)c2c(ccc3ccc(=O)oc23)OC1(C)C the Potency was “inactive”.
With Fc1cccc(-n2ncc3c2ncn2nc(Cc4ccccc4)nc32)c1 the Potency was “inactive”.
For CC(C)N(C(=O)NC(=O)Nc1ccccn1)S(C)(=O)=O, the Potency was “inactive”.
For COc1ccc(NC(=O)CN(c2cc(C)cc(C)c2)S(=O)(=O)c2c(C)noc2C)cc1Cl, the Potency was “inactive”.
In the case of CC1CCCCC1N1CCN(C(=O)c2cccc(F)c2)CC1 (stereo not given), the Potency is reported as “inactive”.
For Cc1cccc(C(=O)Nc2nnc(C3=COCCO3)o2)c1, the Potency was “inactive”.
With O=S(=O)(SC1=NCCN1)c1ccccc1 the Potency was inconclusive: 35.5 µM [activator, single point].
In the case of Clc1ccc(-c2nc(-c3ccccn3)no2)cc1Cl, the Potency is reported as active: 2.91 µM.
In the case of CCOC(=O)c1cnn(-c2cc(C)c3cc(C)cc(C)c3n2)c1N, the Potency is reported as “inactive”.
For COc1ccccc1CNC(=O)CCC1N=C2c3ccccc3N=C(SCc3ccc(C)cc3C)N2C1=O (stereo not given), the Potency was inconclusive: 31.6 µM [inhibitor, single point].
With N=c1n(Cc2ccccc2)c2ccccc2n1CC(O)COc1ccc(Cl)cc1Cl (stereo not given) the Potency was inconclusive: 1.41 µM [inhibitor, partial curve, poor fit].
For Cc1ccccc1NS(=O)(=O)c1cc(C(=O)N2CCCC2)ccc1C, the Potency was “inactive”.
